Test results taken from PMC12145522.

B1: HrpL, bacterial two-hybrid fusion in pTRG (protein, UniProt P37929 1-184)
chain: MLPNLVILDVTEPRKPSSSAGIRQLTADQIQMLRAFIQKRVKNADDVDDILQCVFLEALRNEHKFQHASKPQTWLCGIALNLIRNHFRKMYRQPYQESWEDDVHTDLEWHGDITHQVDGHRQLARVIEAIDCLPTNMQKVLEVSLEMDGNYQETANTLGVPIGTVRSRLSRARVQLKQQIDPFA
B2: HrpR, bacterial two-hybrid fusion in pTRG (protein, UniProt P37930 1-314)
chain: MSTDIDNDVRTRWNVTALSAGHQIAMHSALLDMDLLLCGETGTGKDTLASRIHELSSRTGPFVGMNCAAIPESLAESQLFGVVNGAFTGVCRAREGYIEPSNGGTLYLDEIDTMPLSLQAKLLRVLESRGVERLGSTDFIPLDLQVIASASAPLDELVEQGLFRRDLFFRLNVLTLQLPALRKRREQILPLFDQFTQDIAAECGRSAPTLDNGRVQILLSHDWPGNVRELKSAANAICPRIAVAGRRAVEARDPVTGLRMQMRVIEKMLIQDALKRHRHNFDAVLEELELPRRTLYHRMKELGVASHIDLAAES
B3: HrpS, bacterial two-hybrid fusion in pTRG (protein, UniProt P37931 1-302)
chain: MNLDDEFDDDLDAERVPNLGIVAESISQLGIDVLLSGETGTGKDTTARRIHNMSGRQGRFVPMNCAAIPESLAESELFGVVSGAYTGADRSRMGYIEAAQGGTLYLDEIDSMPLALQAKLLRVLETRALERLGSTSTIHLDICVIASAQASLDDAVEEGKFRRDLYFRLNVLTLKLPPLRDQPERILPLFTRFVAASAKELNVAIPDVCPLLQQVLTGHRWPGNIRELKAAAKRHVLGFPLLGADSQTEEHMACGLKFQLRAIEKALIQQALKRHRNCIDAASLELDIPRRTLYRRIKELSI

Columns and labels:
Assay in all cases: two-hybrid; BacterioMatch II bacterial two-hybrid; TrpR2 in pBT, HrpR, HrpS or HrpL in pTRG; E. coli XL1-Blue; spotted on selective M9 medium with 5 mM 3-AT, 28℃, 1-2 days
[1] = molecular target: TrpR2 G57A (Pseudomonas syringae pv. actinidiae M228)
[2] = molecular target: TrpR2 G76A (Pseudomonas syringae pv. actinidiae M228)
[3] = molecular target: TrpR2 P37A (Pseudomonas syringae pv. actinidiae M228)
[4] = molecular target: TrpR2 G118A (Pseudomonas syringae pv. actinidiae M228)
[5] = molecular target: TrpR2 L104A (Pseudomonas syringae pv. actinidiae M228)
[6] = molecular target: TrpR2 L72A (Pseudomonas syringae pv. actinidiae M228)
[7] = molecular target: TrpR2 L120A (Pseudomonas syringae pv. actinidiae M228)
[8] = molecular target: TrpR2 F98A (Pseudomonas syringae pv. actinidiae M228)
[9] = molecular target: TrpR2 (temperature-responsive pathogenic regulator 2), bacterial two-hybrid fusion in pBT (Pseudomonas syringae pv. actinidiae M228)
[10] = molecular target: TrpR2 D18A (Pseudomonas syringae pv. actinidiae M228)

Binder	binding [1]	binding [2]	binding [3]	binding [4]	binding [5]	binding [6]	binding [7]	binding [8]	binding [9]	binding [10]
B1	binds	binds	binds	binds	binds	binds	binds	binds	binds	binds
B2	–	–	–	–	–	–	–	–	no binding	–
B3	–	–	–	–	–	–	–	–	no binding	–

These are yes or no findings as the source states them, for the method shown. A result given as binding can be weak or reduced; the word gives no strength. Where a sequence is shown, tags or fusion partners need not be part of it.
